Melanoma cell counts after drug treatment

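Human melanoma cell lines in 1,536-well plates were treated with a pair of drugs for 72 h, then fixed, stained and imaged. The read-out is cell count (nuclei) in % of the DMSO control; lower values mean stronger growth inhibition or killing. Every drug was used at one fixed concentration, the higher of two screened. No replicate spread is given; individual values may be noisy.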 An unselected part of the screen is shown.

Compounds and concentrations:
U73122 (2 µM): COc1ccc2c(c1)CCC1C2CCC2(C)C(NCCCCCCN3C(=O)C=CC3=O)CCC12 (centres undefined)
lestaurtinib (0.02 µM): C[C@]12O[C@H](C[C@]1(O)CO)n1c3ccccc3c3c4c(c5c6ccccc6n2c5c31)CNC4=O
FK866 (0.05 µM): O=C(/C=C/c1cccnc1)NCCCCC1CCN(C(=O)c2ccccc2)CC1
bexarotene (10 µM): C=C(c1ccc(C(=O)O)cc1)c1cc2c(cc1C)C(C)(C)CCC2(C)C
selumetinib (0.075 µM): Cn1cnc2c(F)c(Nc3ccc(Br)cc3Cl)c(C(=O)NOCCO)cc21
KU-0063794 (0.1 µM): COc1ccc(-c2ccc3c(N4CCOCC4)nc(N4C[C@@H](C)O[C@@H](C)C4)nc3n2)cc1CO
stibogluconate (10 µM): O=C(O)[C@@H]1[O][Sb](=[O])([O][Sb]2(=[O])[O][C@H]([C@H](O)CO)[C@H](O)[C@H](C(=O)O)[O]2)[O][C@H]([C@H](O)CO)[C@@H]1O (some centres undefined)
decitabine (0.5 µM): Nc1ncn([C@H]2C[C@H](O)[C@@H](CO)O2)c(=O)n1
ZM336372 (10 µM): Cc1ccc(NC(=O)c2cccc(N(C)C)c2)cc1NC(=O)c1ccc(O)cc1

{"drugs": "decitabine + selumetinib", "COLO 829": 89.9, "WM3619": 77.9, "COLO 800": 76.0, "C32": 89.9}
{"drugs": "bexarotene + selumetinib", "COLO 829": 104, "WM3619": 54.4, "COLO 800": 114, "C32": 87.9}
{"drugs": "KU-0063794 + decitabine", "COLO 829": 59.6, "WM3619": 62.8, "COLO 800": 83.4, "C32": 111}
{"drugs": "KU-0063794 + FK866", "COLO 829": 52.8, "WM3619": 79.5, "COLO 800": 17.2, "C32": 78.0}
{"drugs": "stibogluconate + selumetinib", "COLO 829": 79.6, "WM3619": 66.5, "COLO 800": 112, "C32": 74.9}
{"drugs": "decitabine + U73122", "COLO 829": 86.9, "WM3619": 67.4, "COLO 800": 71.0, "C32": 78.4}
{"drugs": "lestaurtinib + decitabine", "COLO 829": 75.8, "WM3619": 79.0, "COLO 800": 111, "C32": 83.6}
{"drugs": "ZM336372 + FK866", "COLO 829": 60.8, "WM3619": 113, "COLO 800": 29.4, "C32": 76.8}
{"drugs": "FK866 + selumetinib", "COLO 829": 76.8, "WM3619": 47.2, "COLO 800": 13.5, "C32": 81.6}
{"drugs": "lestaurtinib + KU-0063794", "COLO 829": 89.4, "WM3619": 39.8, "COLO 800": 87.7, "C32": 83.7}
{"drugs": "bexarotene + stibogluconate", "COLO 829": 83.7, "WM3619": 73.0, "COLO 800": 113, "C32": 107}
{"drugs": "selumetinib + lestaurtinib", "COLO 829": 84.0, "WM3619": 62.0, "COLO 800": 82.9, "C32": 85.4}
{"drugs": "U73122 + FK866", "COLO 829": 67.7, "WM3619": 74.4, "COLO 800": 22.1, "C32": 67.0}
{"drugs": "ZM336372 + bexarotene", "COLO 829": 79.3, "WM3619": 75.0, "COLO 800": 114, "C32": 99.6}
{"drugs": "FK866 + bexarotene", "COLO 829": 55.8, "WM3619": 81.6, "COLO 800": 19.5, "C32": 99.2}
{"drugs": "ZM336372 + KU-0063794", "COLO 829": 76.3, "WM3619": 62.0, "COLO 800": 76.4, "C32": 93.5}
{"drugs": "bexarotene + lestaurtinib", "COLO 829": 78.3, "WM3619": 80.1, "COLO 800": 158, "C32": 93.9}
{"drugs": "decitabine + stibogluconate", "COLO 829": 78.9, "WM3619": 80.6, "COLO 800": 55.4, "C32": 88.4}
{"drugs": "U73122 + lestaurtinib", "COLO 829": 96.8, "WM3619": 52.7, "COLO 800": 53.7, "C32": 58.2}
{"drugs": "ZM336372 + decitabine", "COLO 829": 71.0, "WM3619": 80.9, "COLO 800": 86.6, "C32": 93.0}
{"drugs": "bexarotene + U73122", "COLO 829": 67.5, "WM3619": 27.3, "COLO 800": 111, "C32": 96.0}
{"drugs": "stibogluconate + ZM336372", "COLO 829": 106, "WM3619": 84.8, "COLO 800": 105, "C32": 103}
{"drugs": "selumetinib + U73122", "COLO 829": 114, "WM3619": 33.7, "COLO 800": 43.8, "C32": 66.7}

The first 3 entries again:

* decitabine + selumetinib | COLO 829: 89.9; WM3619: 77.9; COLO 800: 76.0; C32: 89.9
* bexarotene + selumetinib | COLO 829: 104; WM3619: 54.4; COLO 800: 114; C32: 87.9
* KU-0063794 + decitabine | COLO 829: 59.6; WM3619: 62.8; COLO 800: 83.4; C32: 111

From a melanoma drug combination screen (doi:10.1371/journal.pone.0140310); values rounded.